The values that follow come from PMC10304680.

Where a protein sequence is shown, tags need not be part of it. Construct, isoform or probe ends are uncertain for at least one entry. The comparison behind a weaker result is the experiment's own reference, which may not be listed here.

In the data set the target is T1, Smlt2053 (TetR-like regulator, PsrA ortholog) (Stenotrophomonas maltophilia K279a) (UniProt B2FNQ4).
T1 sequence (looked up): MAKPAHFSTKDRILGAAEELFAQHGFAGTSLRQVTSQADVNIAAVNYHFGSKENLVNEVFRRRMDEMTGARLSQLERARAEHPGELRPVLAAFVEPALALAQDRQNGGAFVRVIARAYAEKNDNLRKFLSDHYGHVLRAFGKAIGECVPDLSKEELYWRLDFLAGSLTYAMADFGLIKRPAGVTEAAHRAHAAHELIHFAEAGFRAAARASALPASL
Kind of data set: EMSA. The settings on record: Tris-glycine (10 mM to 40 mM), 20 mM KCl, 7.5% glycerol, 0.01 mg/mL BSA, 1 mM DTT, 20 ng/uL poly(dI-dC), 50 ng probe in 20 uL, 30 min at 4 C, binding pH not stated, recombinant protein, residues 1-217, letters put together from the description. For orientation: A gel shift assay detects complexes by their altered migration in electrophoresis.

As for “GGGATGTCTCCAATGGAATCGGGCCGCTGATGGCCCGAAGGGTAACATGAAAAAAACCCGCGTCGGGACGCGGGCTTAGCCTGATAAACGTAGGCGAATTGTAAAAGATAAAGCGGCGGCATGGTAGTGCCGGCCGCTGGCCGGCATTGGGCGCCATTCAACCTCGGGGCTGCCGGCCAGCGGCCGGCACTACCCCATTCACCCACCTGAGTGAAATCTGACCGGATCGGCCGATTTTGCTGCACTGCAAAATGCCATACGGTACCGTCTGGTCCTAGTATCAAACAATCGTTTGATTAAGGTCCGCCCACC (double strand) [Psmlt2053]”, the binding result (13-methyltetradecanoic acid (iso-C15:0), 429 nM protein) was “binds more weakly”; the binding result (DSF (cis-11-methyl-2-dodecenoic acid) 5-500 uM, 429 nM protein) is on record as “binds more weakly”; the binding result (lauric acid (C12:0), partial effect at mM, 429 nM protein) is recorded as “binds more weakly”; the binding result (no fatty acid, second complex at higher protein) is recorded as “binds”; the binding result (palmitic acid (C16:0), 429 nM protein) is recorded as “binds more weakly”; the binding result (sodium butyrate (C4), no effect, 429 nM protein) is “binds”.
